# The supplement of paper PMC10398353
# Several values for one entry are separate records, joined by “and”; a condition that tells them apart may be missing. Identical values can stand only once. Counter-ions that a name gives are not always drawn. ± gives the standard deviation of the averaged measurements. The list shows a part of the results. Single values of this set are uncertain.
# System: Salmonella enterica serovar Typhimurium ST313 D23580
# Assay: normalized bacterial growth (OD600 20 h minus 0 h, interquartile-mean normalized) (fraction of plate interquartile mean); higher = more bacterial growth (less inhibition)
# Details: LPM (pH 5.8, low phosphate, low Mg2+), concentration: 10 µM, temperature: 37 °C
row,SMILES,normalized bacterial growth
1,COC(=O)Nc1nc2cc(C(=O)c3ccccc3)ccc2[nH]1,1.02
2,CC1(C)S[C@@H]2[C@H](NC(=O)[C@H](NC(=O)N3CCNC3=O)c3ccccc3)C(=O)N2[C@H]1C(=O)O [Azlocillin sodium salt],1.14
3,CC1(C)S[C@@H]2[C@H](NC(=O)[C@H](NC(=O)N3CCNC3=O)c3ccccc3)C(=O)N2[C@H]1C(=O)O,1.26
4,COc1c(-c2coc3cc4c(cc3c2=O)CC(OC(C)=O)C(C)(C)O4)ccc2c1C=CC(C)(C)O2 (stereo not drawn),0.786
5,NC(=O)c1cc[n+](CC2=C(C(=O)O)N3C(=O)[C@@H](NC(=O)[C@@H](c4ccccc4)S(=O)(=O)[O-])[C@H]3SC2)cc1,1.11
6,CCCCCCc1ccc(O)cc1O.Nc1c2ccccc2nc2ccccc12,0.997
7,C[C@@H]1O[C@@H](OC[C@H]2O[C@@H](Oc3cc(O)c4c(c3)O[C@H](c3ccc(O)cc3)CC4=O)[C@H](O)[C@@H](O)[C@@H]2O)[C@H](O)[C@H](O)[C@H]1O,0.824
8,COc1cc(O)c2c(c1)oc(=O)c1c3cc(O)c(O)cc3oc21,0.96
9,COC(=O)[C@H]1[C@H]2C[C@H]3c4[nH]c5ccccc5c4CCN3C[C@@H]2CC[C@@H]1O,0.986 ± 0.016
10,COC(=O)[C@H]1[C@H]2C[C@H]3c4[nH]c5ccccc5c4CCN3C[C@@H]2CC[C@@H]1O [Corynanthine hydrochloride],1.18
11,CC(=O)Nc1ccccc1,1.29
12,CSc1ccc2c(c1)C(N1CCN(C)CC1)Cc1ccccc1S2 (stereo not drawn) [Methiothepin mesylate],0.979
13,CSc1ccc2c(c1)C(N1CCN(C)CC1)Cc1ccccc1S2 (stereo not drawn) [Methiothepin maleate],1.15
14,COc1ccc2c(=O)c(-c3cc4c(cc3OC)OCO4)coc2c1,1.2
15,Cc1ccc(O)c(N=Nc2ccccc2)n1,0.909
16,COc1ccc2c(c1)OC/C(=C\c1ccc(OC)c(O)c1)C2=O,0.972
17,C[C@]1(OC(=O)/C=C/c2ccccc2)C[C@@H](O)[C@]2(O)C=CO[C@@H](O[C@@H]3O[C@H](CO)[C@@H](O)[C@H](O)[C@H]3O)[C@@H]21,1.11
18,C[C@]1(OC(=O)/C=C/c2ccccc2)C[C@@H](O)[C@]2(O)C=CO[C@@H](O[C@@H]3O[C@H](CO)[C@@H](O)[C@H](O)[C@H]3O)[C@@H]21 [Harpagoside],1.14
19,C[N+]1(C)[C@@H]2CC[C@H]1C[C@@H](OC(=O)C(O)c1ccccc1)C2 (stereo partly drawn),1.01
20,COc1ccc2c(c1)OC1(O)COc3cc(OC)c(OC)cc3C1=C2 (stereo not drawn),0.988
21,COc1c2ccoc2c(OC)c2oc(=O)ccc12,1.1
22,COc1ccc([C@@H]2CC(=O)c3c(O)cc(O[C@@H]4O[C@H](CO[C@@H]5O[C@@H](C)[C@H](O)[C@@H](O)[C@H]5O)[C@@H](O)[C@H](O)[C@H]4O)cc3O2)cc1O,1.13
23,CC(C)(C(=O)O)c1ccc(C(O)CCCN2CCC(C(O)(c3ccccc3)c3ccccc3)CC2)cc1 (stereo not drawn) [Fexofenadine hydrochloride],0.552
24,CC(C)(C(=O)O)c1ccc(C(O)CCCN2CCC(C(O)(c3ccccc3)c3ccccc3)CC2)cc1 (stereo not drawn),1.35
25,CC(N)=NCCCC[C@H](N)C(=O)O [L-N6-(1-Iminoethyl)lysine hydrochloride],1.08
26,CN(C)CCCN1c2ccccc2Sc2ccccc21 [Promazine hydrochloride],0.869

row,SMILES,normalized bacterial growth
1,Cc1cc(C(C)(C)C)c(O)c(C)c1CC1=NCCN1 [Oxymetazoline hydrochloride],0.793
2,O=C[C@H](O)[C@@H](O)[C@H](O)CO,0.517
3,C[N+]1(C)C[C@H](O)C[C@H]1C(=O)[O-] [Betonicine],1.38
4,C=CC(C1=CC(=O)C=CC1=O)c1ccccc1 (stereo not drawn),1.09
5,COC(=O)[C@H](OC(C)=O)[C@H]1C(C)(C)[C@H](OC(C)=O)[C@@H]2CC3=C4CC(=O)O[C@@H](c5ccoc5)[C@]4(C)CC[C@@H]3[C@@]1(C)C2=O,1.14
6,CC(=O)NCCCS(=O)(=O)O,0.884
7,COc1ccc2c(c1OC)C(=O)O[C@@H]2[C@H]1c2c(cc3c(c2OC)OCO3)CCN1C [Noscapine hydrchloride],0.842
8,COc1ccc2c(c1OC)C(=O)O[C@@H]2[C@H]1c2c(cc3c(c2OC)OCO3)CCN1C,0.99 and 0.972
9,O=C1C=C(O)C(=O)c2ccccc21,0.762
10,CCCCCCCCCCCCCCCC(=O)OC(CC(=O)O)C[N+](C)(C)C (racemic) [Palmitoyl-DL-Carnitine chloride],1.32
11,CC(C)(C)NCC(O)COc1cccc2c1CCC(=O)N2 (stereo not drawn) [Carteolol hydrochloride],1.05
12,C=C[C@@](C)(O)CC[C@H]1C(=C)CC[C@H]2C(C)(C)CCC[C@]12C,0.893
13,C=C1c2c(Cl)ccc(O)c2C(=O)C2=C(O)[C@]3(O)C(=O)C(C(N)=O)=C(O)[C@@H](N(C)C)[C@@H]3[C@@H](O)[C@H]12.O=C(O)c1cc(S(=O)(=O)O)ccc1O,0.0259
14,C=C1c2c(Cl)ccc(O)c2C(=O)C2=C(O)[C@]3(O)C(=O)C(C(N)=O)=C(O)[C@@H](N(C)C)[C@@H]3[C@@H](O)[C@H]12.O=C(O)c1cc(S(=O)(=O)O)ccc1O [Meclocycline sulfosalicylate],0.0396
15,CC(C)C[C@H](NC(=O)[C@H](O)[C@H](N)Cc1ccccc1)C(=O)O [Epibestatin hydrochloride],1.09
16,C/C=C1\C(=O)C[C@H]2[C@@H]3CCC4=CC(=O)CC[C@]4(C)[C@H]3CC[C@]12C [(Z)-Guggulsterone],0.921
17,O=C(CCc1ccc(O)cc1)c1c(O)cc(O)cc1OC1OC(CO)C(O)C(O)C1O (stereo not drawn),1.1
18,OC[C@H]1O[C@H](O[C@]2(CCl)O[C@H](CCl)[C@@H](O)[C@@H]2O)[C@H](O)[C@@H](O)[C@H]1Cl,1.07
19,O=C(O)[C@@H](O)[C@H](O)[C@H](O)[C@@H](O)C(=O)O,0.744
20,CN1CCc2c(cc(O)c(O)c2Cl)C(c2cccc(Cl)c2)C1 (stereo not drawn),0.802
21,O=C(O)c1cc(=O)cc(C(=O)O)[nH]1 [Chelidamic acid],1.12
22,C/C1=C/CCC(C)(O)/C=C\C(C(C)C)C(OC(=O)c2ccc(O)cc2)C1 (stereo not drawn),0.91
23,Nc1nc2ccc(OC(F)(F)F)cc2s1 [Riluzole hydrochloride],1.02
24,Nc1nc2ccc(OC(F)(F)F)cc2s1 [Riluzole],1.02
25,Oc1cc(O)c2c(c1)O[C@H](c1ccc(O)c(O)c1)[C@H](O)C2,0.928
26,COc1ccc(-c2cc(=O)c3c(O)c(OC)c(O[C@@H]4O[C@H](CO[C@@H]5O[C@@H](C)[C@H](O)[C@@H](O)[C@H]5O)[C@@H](O)[C@H](O)[C@H]4O)cc3o2)cc1,0.764

row,SMILES,normalized bacterial growth
1,C(=C\c1ccccc1)/CN1CCN(C(c2ccccc2)c2ccccc2)CC1 [Cinnarizine],0.58
2,Cn1c(=O)[nH]c(=O)c2[nH]cnc21,0.742
3,CCCCCCCCCCCCCCC[C@H](O)[C@H](N)CO (racemic) [DL-erythro-Dihydrosphingosine],0.958
4,COc1ccc(-c2cc(=O)c3cc(OC)ccc3o2)cc1,1
5,COc1cccc(-c2cc(=O)c3ccccc3o2)c1N,0.96
6,CC(=O)c1ccc2c(c1)N(CCCN(C)C)c1ccccc1S2,0.883
7,CN(C)CCOC(C)(c1ccccc1)c1ccccn1 (stereo not drawn) [Doxylamine succinate],0.896
8,Oc1c(I)cc(Cl)c2cccnc12,0.0876
9,C=CC(C1=CC(=O)C(OC)=CC1=O)c1ccc(OC)cc1 (stereo not drawn),0.738
10,C[C@H]1[C@H](C)CC[C@]2(CO)CC[C@]3(C)C(=CC[C@@H]4[C@@]5(C)CC[C@H](O)C(C)(C)[C@@H]5CC[C@]43C)[C@H]12,0.968 ± 0.097
11,CN(C(=O)C(Cl)Cl)c1ccc(OC(=O)c2ccco2)cc1,0.929
12,"Nc1ccn([C@H]2CC[C@@H](CO)O2)c(=O)n1 [""2',3'-dideoxycytidine""]",1.05
13,Oc1cc(O)c2c(c1)O[C@H](c1cc(O)c(O)c(O)c1)[C@H](O)C2,1.19 ± 0.017
14,C=CC(C)(O)CCC1C(=C)CC(OC(C)=O)C2C(C)(C)CCCC12C (stereo not drawn),0.734
15,CN1CCN(CCCN2c3ccccc3Sc3ccc(C(F)(F)F)cc32)CC1 [Trifluoperazine dihydrochloride],1.35
16,COc1ccc(OC)c(C(O)CNC(=O)CN)c1 (stereo not drawn),1.13
17,"COC(=O)C[C@H]1C(C)(C)C2(O)OC34CC2C(=O)[C@]1(C)C3CC[C@]1(C)C4=CC(=O)O[C@H]1c1ccoc1 (stereo partly drawn) [""8beta-HYDROXYCARAPIN, 3,8-HEMIACETAL""]",1.08
18,CNC[C@H](O)c1ccc(O)c(O)c1,1.13
19,CNC[C@H](O)c1ccc(O)c(O)c1 [()-Epinephrine hydrochloride],0.926
20,CNC[C@H](O)c1ccc(O)c(O)c1 [(-)-Epinephrine bitartrate],0.884
21,Cn1c(=O)c2nc(C3CCCC3)[nH]c2n(C)c1=O,0.987
22,Cc1c[nH]c2ccccc12,1.1
23,O=c1cc(-c2ccc(O)cc2)oc2ccc(O)cc12,1.02
24,CC(=O)NS(=O)(=O)c1ccc(NC(=O)c2ccccc2C(=O)O)cc1,0.856
25,CC[C@H](C)[C@H](N)C1=N[C@H](C(=O)N[C@@H](CC(C)C)C(=O)N[C@H](CCC(=O)O)C(=O)N[C@H](C(=O)N[C@H]2CCCCNC(=O)[C@H](CC(N)=O)NC(=O)[C@@H](CC(=O)O)NC(=O)[C@H](Cc3cnc[nH]3)NC(=O)[C@@H](Cc3ccccc3)NC(=O)[C@H]([C@@H](C)CC)NC(=O)[C@@H](CCCN)NC2=O)[C@@H](C)CC)CS1 [Bacitracin],1.46
26,CC[C@H](C)[C@H](N)C1=N[C@H](C(=O)N[C@@H](CC(C)C)C(=O)N[C@H](CCC(=O)O)C(=O)N[C@H](C(=O)N[C@H]2CCCCNC(=O)[C@H](CC(N)=O)NC(=O)[C@@H](CC(=O)O)NC(=O)[C@H](Cc3cnc[nH]3)NC(=O)[C@@H](Cc3ccccc3)NC(=O)[C@H]([C@@H](C)CC)NC(=O)[C@@H](CCCN)NC2=O)[C@@H](C)CC)CS1,1.42
